Results on one substance are retold here after publication PMC6944463.

Chains of the proteins cited; added tags and fusions are not shown. Lines headed by an entry give the natural chain unless they say otherwise; changes in a name come on top.
UniProt Q96EK4: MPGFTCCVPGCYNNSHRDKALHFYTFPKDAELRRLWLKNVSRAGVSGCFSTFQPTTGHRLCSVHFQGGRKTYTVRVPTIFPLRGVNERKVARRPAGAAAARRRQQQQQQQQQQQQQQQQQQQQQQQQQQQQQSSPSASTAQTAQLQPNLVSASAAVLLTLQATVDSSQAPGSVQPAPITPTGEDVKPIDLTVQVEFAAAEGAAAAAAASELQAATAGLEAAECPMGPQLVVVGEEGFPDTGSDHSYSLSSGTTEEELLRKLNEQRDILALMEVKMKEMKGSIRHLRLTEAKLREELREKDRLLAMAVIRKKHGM

The assay addresses THAP11 (Flag- or HA-epitope-tagged) (human) (UniProt Q96EK4). The experiment in a line: co-IP; HEK-293 cells co-transfected with Flag- and HA-tagged THAP constructs; whole-cell lysates, anti-HA immunoprecipitation, immunoblot with anti-HA and anti-Flag. (In general: In western blotting, separated proteins are transferred to a membrane and probed.)

No constants are given. Whether binding was seen depends on the method and setting. Binding seen in cells or lysates may run through a third protein. Binding calls can cover weak binding; strength is not graded here.

As to “THAP11 HBM mutant (epitope-tagged) (from UniProt Q96EK4)”, the binding entry is “binds”.
